Reference: publication PMC6443681
No constants are given. Whether binding was seen depends on the method and setting. For some of these results: Binding seen in cells or lysates may run through a third protein. Some entries that bind do so weakly or less than the wild type. Where a sequence is shown, tags or fusion partners need not be part of it. One block for each binder: values may come before it.

Tests used:
[1] = molecular target: T1, OsPT2 (rice homologue of OsPT8), yeast two-hybrid fusion (rice) (UniProt Q8GSD9); assay: two-hybrid; yeast strain Mav203, AD vector pPC86 and BD vector pDBLeu; OsPT8 as bait against the rice NPB cDNA library, then confirmed; growth on SD-Leu-Trp-His with 35 mM 3'AT
T1 sequence: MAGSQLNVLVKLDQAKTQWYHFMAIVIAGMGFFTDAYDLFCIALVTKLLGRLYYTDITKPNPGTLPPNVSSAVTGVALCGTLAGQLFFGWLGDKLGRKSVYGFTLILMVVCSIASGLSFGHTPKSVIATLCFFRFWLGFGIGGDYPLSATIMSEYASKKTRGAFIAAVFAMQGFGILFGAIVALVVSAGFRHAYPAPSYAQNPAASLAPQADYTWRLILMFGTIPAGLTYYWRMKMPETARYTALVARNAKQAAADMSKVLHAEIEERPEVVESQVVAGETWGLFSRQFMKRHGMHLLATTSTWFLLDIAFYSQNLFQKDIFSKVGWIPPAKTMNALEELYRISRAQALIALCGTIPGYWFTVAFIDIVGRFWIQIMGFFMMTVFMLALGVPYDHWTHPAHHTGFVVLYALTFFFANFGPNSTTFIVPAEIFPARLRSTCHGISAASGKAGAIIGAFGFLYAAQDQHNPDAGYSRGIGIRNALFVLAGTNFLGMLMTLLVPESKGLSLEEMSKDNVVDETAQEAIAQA

[2] = molecular target: T2, OsPT8 (rice phosphate transporter, Pht1 family), yeast two-hybrid fusion (rice (Oryza sativa, Nipponbare)) (UniProt Q8H6G8); assay: as above
T2 sequence: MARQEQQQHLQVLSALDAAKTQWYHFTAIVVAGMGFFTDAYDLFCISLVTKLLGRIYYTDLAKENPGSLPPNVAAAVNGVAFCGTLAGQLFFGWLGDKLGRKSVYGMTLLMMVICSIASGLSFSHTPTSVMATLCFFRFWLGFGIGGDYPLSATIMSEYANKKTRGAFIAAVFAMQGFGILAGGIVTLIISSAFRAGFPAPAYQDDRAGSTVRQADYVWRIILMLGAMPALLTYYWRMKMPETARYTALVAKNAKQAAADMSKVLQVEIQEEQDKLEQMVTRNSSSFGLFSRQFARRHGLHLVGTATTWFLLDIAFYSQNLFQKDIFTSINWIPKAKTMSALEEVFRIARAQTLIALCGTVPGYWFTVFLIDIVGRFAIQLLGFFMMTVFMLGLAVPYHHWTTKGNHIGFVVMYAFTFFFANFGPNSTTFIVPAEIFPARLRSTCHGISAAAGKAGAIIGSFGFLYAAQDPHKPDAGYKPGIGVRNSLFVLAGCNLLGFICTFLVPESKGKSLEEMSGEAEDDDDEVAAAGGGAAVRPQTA

[3] = molecular target: T3, OsPT8-Cluc (rice (Oryza sativa, Nipponbare)) (UniProt Q8H6G8); assay: split reporter; firefly luciferase complementation imaging (LCI) in N. benthamiana leaves, co-infiltrated with p19, 26 C dark 48 h
T3 sequence: T2 sequence

[4] = molecular target: T4, BWMK1: GST fusion protein (rice (Oryza sativa, Nipponbare)) (UniProt Q5Z9J0); assay: pull-down; 10 ug OsPT8:MBP mixed with 10 ug BWMK1:GST, glutathione sepharose beads, 4 h at 4 C, five washes with 1x TBST, Western blot with anti-MBP or anti-GST; both purified
T4 sequence: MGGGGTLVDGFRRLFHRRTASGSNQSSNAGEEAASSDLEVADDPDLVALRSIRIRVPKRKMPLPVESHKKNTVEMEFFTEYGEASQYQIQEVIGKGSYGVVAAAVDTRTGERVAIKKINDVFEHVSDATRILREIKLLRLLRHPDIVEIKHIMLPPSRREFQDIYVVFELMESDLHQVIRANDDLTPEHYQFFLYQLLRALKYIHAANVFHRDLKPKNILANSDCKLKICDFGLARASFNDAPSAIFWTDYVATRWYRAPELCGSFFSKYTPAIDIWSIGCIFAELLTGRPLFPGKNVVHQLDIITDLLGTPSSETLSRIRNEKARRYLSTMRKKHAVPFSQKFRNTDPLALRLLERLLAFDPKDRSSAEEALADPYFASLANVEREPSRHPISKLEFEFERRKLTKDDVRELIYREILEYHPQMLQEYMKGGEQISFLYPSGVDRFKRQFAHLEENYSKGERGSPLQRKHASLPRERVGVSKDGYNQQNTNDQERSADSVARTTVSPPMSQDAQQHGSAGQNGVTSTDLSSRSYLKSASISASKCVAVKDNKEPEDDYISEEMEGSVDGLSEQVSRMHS

binding [1]: no binding
binding [2]: binds
B1: BWMK1 (rice mitogen-activated protein kinase), yeast two-hybrid fusion (protein, UniProt Q5Z9J0 1-580)
chain: T4 sequence

binding [3]: binds
B2: BWMK1-Nluc (protein, UniProt Q5Z9J0 1-580)
chain: T4 sequence

binding [4]: binds
B3: OsPT8: MBP fusion protein (protein, UniProt Q8H6G8 1-541)
chain: T2 sequence
